According to PubChem BioAssay AID2718 (Broad Institute, 2010):
Out of some 320,000 compounds screened, about 480 (0.15%) were called active. This list was built around the results that the source calls inconclusive (neither active nor inactive); the mix of calls is not that of the screen. Cut-off read from the data, not from the text of the source: active = inhibition above about 26% (passing the limit was not always enough); inconclusive = no clear call, values can overlap the other calls.

Sequences of proteins named here, by UniProt entry; tags and fusion partners are left off. A change or cut given only in a name is not applied to a line headed by its entry.
UniProt O15379: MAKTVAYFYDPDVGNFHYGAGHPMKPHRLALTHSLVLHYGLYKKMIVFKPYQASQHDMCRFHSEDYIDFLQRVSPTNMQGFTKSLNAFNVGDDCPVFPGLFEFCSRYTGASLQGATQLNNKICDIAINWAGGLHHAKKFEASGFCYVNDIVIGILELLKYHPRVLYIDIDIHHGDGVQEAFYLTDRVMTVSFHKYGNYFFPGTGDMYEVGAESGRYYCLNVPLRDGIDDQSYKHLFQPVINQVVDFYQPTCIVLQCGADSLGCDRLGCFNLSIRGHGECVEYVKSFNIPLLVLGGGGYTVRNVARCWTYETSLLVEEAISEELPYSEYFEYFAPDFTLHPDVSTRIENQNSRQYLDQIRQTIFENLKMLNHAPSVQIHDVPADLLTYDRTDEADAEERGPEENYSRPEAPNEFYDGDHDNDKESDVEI

Target: Histone deacetylase 3 (Homo sapiens) (UniProt O15379)
Experiment: HDAC3 deacetylase inhibitors, primary screen, biochemical, fluorescence, cell-free homogeneous (AID 2718)
Details: recombinant HDAC3, fluorogenic peptide/trypsin coupled, at 8.3 µM, hits give high values

Structure (SMILES)	inhibition
O=C(c1cccc(F)c1)N1CCc2ccccc21	inconclusive: 26.2%
COc1cc(OC)cc(C(=O)NCc2ccc3c(c2)OCO3)c1	inactive: 0.563%
O=C(Nc1ccc(Br)cc1)C1CCN(C(=O)c2ccco2)CC1	inconclusive: 13.3%
O=S(=O)(Nc1ncccn1)c1ccc(NC(=S)NCCc2ccc(Cl)cc2)cc1	inconclusive: 22%
Cc1c(Br)c([N+](=O)[O-])nn1CC(=O)N(C)Cc1ccccc1	inconclusive: 12.3%
O=C(CNC(=O)c1cccs1)OCC(=O)c1ccccc1	inconclusive: 10.8%
CCOc1cc(C(=S)N2CCCC2)ccc1O	inactive: -3.54%
O=C(CSc1nnc(SCc2ccc(Cl)cc2)s1)N1CCN(C(=O)c2ccco2)CC1	inactive: 5.04%
Cc1cc(S(=O)(=O)ON2C(=O)c3ccccc3C2=O)ccc1F	inconclusive: 33.1%
CCCc1ccc2oc(C(=O)N3CCC(C(N)=O)(N4CCCCC4)CC3)c(C)c2c1	inconclusive: 23.8%
CCOc1cc(/C=C(/NC(C)=O)C(=O)O)cc(Cl)c1OCc1cccc(Br)c1	inconclusive: 15.5%
CC(Cl)C(=O)NNc1cccc(Cl)n1 (centres undefined)	inactive: -6.17%
Cc1sc2nc(C(C)C)nc(SCC(=O)N3CCN(C(=O)c4ccco4)CC3)c2c1C	inactive: 2.48%
Cc1nnc(NC(=O)CC23CC4CC(CC(C4)C2)C3)s1	inconclusive: 28.2%
C[C@H](CO)N1C[C@H](C)[C@@H](CN(C)C(=O)Nc2ccc3c(c2)OCO3)Oc2ccc(NC(=O)Nc3ccc(C(F)(F)F)cc3)cc2C1=O	inconclusive: 23.3%
O=C(O)CCC(=O)N1CCc2cc(S(=O)(=O)NCCc3ccc(Cl)cc3)ccc21	inconclusive: 20.1%
CC1CCc2[nH]c3ccc(C(=O)N4CCCC(C(F)(F)F)C4)cc3c2C1 (centres undefined)	inconclusive: 13.9%
C1=CCC(CN2CCNCC2)CC1 (centres undefined)	inconclusive: 26.9%
S=c1nccc(-c2cccs2)[nH]1	inactive: 0.0851%
COc1ccccc1CC(NC(C)=O)C(=O)NC1CCN(C(=O)c2cccc(Cl)c2)CC1 (centres undefined)	inconclusive: 13%
Cc1sc(NC(=O)CCCC(=O)O)c(C(N)=O)c1-c1ccccc1	inconclusive: 23.6%
COc1ccc(Cc2nc3ccc(C(=O)N4CCCCC4CCO)cc3o2)cc1 (centres undefined)	inconclusive: 27%
O=Cc1ccc(OC(=O)c2cccnc2)cc1	inconclusive: 25.1%

Two compounds picked at random from those above, as already listed:
Structure (SMILES)	inhibition
COc1ccc(Cc2nc3ccc(C(=O)N4CCCCC4CCO)cc3o2)cc1 (centres undefined)	inconclusive: 27%
CCCc1ccc2oc(C(=O)N3CCC(C(N)=O)(N4CCCCC4)CC3)c(C)c2c1	inconclusive: 23.8%

Going on with the list.

Structure (SMILES)	inhibition
O=c1c2c([N+](=O)[O-])cc([N+](=O)[O-])cc2sn1-c1ccc(Br)cc1	inconclusive: 19.8%
O=C(CN1C2CCCC1CC(NC(=O)c1ccco1)C2)Nc1ccccc1C(F)(F)F (centres undefined)	inactive: 10.9%
COc1ccc(-c2nc(SC)n(C(=O)c3ccco3)n2)cc1	inconclusive: 32.3%
C=CCN(C(=O)CSC1=NC(=O)CN1C(C)=O)c1nc(C)c(-c2ccccc2)s1	active: 68.1%
COc1ccc(-c2csc(/C(C#N)=C\c3ccc(OC)c([N+](=O)[O-])c3)n2)cc1	inconclusive: 12.6%
Nc1cc(C(=O)OCC(=O)NC(c2ccccc2)c2ccccc2)ccc1Cl	inconclusive: 13.5%
CC(C)C1CC(c2ccccc2)(C(CN)CO)CCO1 (centres undefined)	inconclusive: 12.5%
O=c1c2ccccc2ncn1C1CCCCC1	inconclusive: 21.1%
CC1(C)Cc2c(sc3c2C(=O)N(c2ccccc2)C2=NCCN23)CS1	inactive: -8.84%
CCN(C[C@H]1N[C@@](C)(C(=O)OC)[C@H]2C(=O)N(C)C(=O)[C@@H]12)C(=O)Nc1ccccc1	inactive: -3.78%
Cc1ccc(C)c(OCCC(=O)OCC(=O)Nc2cc(S(=O)(=O)N3CCCCC3)ccc2C)c1	inactive: -0.882%
COC(=O)C1=C(C)NC2=C(C(=O)CCC2)C1c1ccc(-c2ccsc2C(=O)OC)o1 (centres undefined)	active: 32.5%
CCCOc1c(Cl)cc(C(=O)Nc2ccc3c(c2)OCO3)cc1OCC	inconclusive: 10.3%
Cc1nc(-c2ccc(F)cc2)c(CC(=O)Nc2cccc(S(=O)(=O)N3CCOCC3)c2)s1	inconclusive: 17.7%
O=C(NC1CCCCCCC1)c1ccccc1O	inactive: -4.18%
COCCN(CC1CCCN(C2Cc3ccccc3C2)C1)C(=O)c1cccs1 (centres undefined)	inconclusive: 14.8%
COc1ccccc1CNC(=O)CSc1nc(C)cs1	inconclusive: 15.4%
Cc1cc(=O)oc2cc(OCC(=O)Nc3ccccc3C(N)=O)c(Cl)cc12	inactive: 3.09%
CCNc1nc(NCC)nc(OCCOC(=O)COc2ccc(Cl)cc2Cl)n1	inconclusive: 14.5%
O=C(NN=C1C2CC3CC(C2)CC1C3)c1cccs1	inactive: -7.55%
CC(=O)N/N=C/c1cc(C(C)C)cc(/C=N/NC(C)=O)c1O	inconclusive: 25.5%
COc1ccc(S(=O)(=O)N(C)CC(=O)NCCC2=CCCCC2)cc1C	inconclusive: 27.3%
CNC(=S)Nc1cc(C(=O)N2CCCC2)ccc1N1CCCC1	inconclusive: 7.08%

Structure (SMILES)	inhibition
O=S1(=O)CC(O)C(N=Nc2c(O)n(Cc3ccccc3)c3ccccc23)C1 (centres undefined)	inactive: 4.12%
C[C@@H](NC(=O)c1nc[nH]c1C(=O)N[C@@H](CCCCNC(=O)OC(C)(C)C)C(=O)OC(C)(C)C)c1ccccc1	active: 34.1%
COc1ccc(N2CCN(S(=O)(=O)c3c(C)nc4sccn4c3=O)CC2)cc1	inactive: -1.62%
Cc1c(C(=O)Nc2cccc(Cl)c2)cn2c(nc3ccccc32)c1C#N	inconclusive: 26.8%
CN(C)c1ccc(NC(=O)/C=C/c2ccccc2Cl)cc1	inconclusive: 22%
CNc1nc(OC)nc(N2CCOCC2)n1	inconclusive: 12.7%
C=CCn1c(C)cc(C(=O)CN2C(=O)c3ccccc3C2=O)c1C	inconclusive: 21.2%
O=C1c2ccccc2NC(c2ccc(Cl)cc2Cl)N1O (centres undefined)	inactive: -2.05%
CCN(CC(=O)Nc1cccc(C(C)=O)c1)S(=O)(=O)c1ccc(OC)cc1	inactive: 3.18%
O=C(Nc1ccc2c(c1)OCO2)c1cccc2c1C(=O)N(C1CCCCC1)C2	inconclusive: 13.5%
Cc1ccccc1NC(=O)c1cccnc1	inactive: -8.01%
Cc1ccc(N2CC(=O)N(NC(=O)c3sc4nc(C)cc(C)c4c3N)CC2=O)cc1	inactive: 0.853%
O=C(NCc1ccco1)c1cnn2c1NC(c1ccccc1)CC2C(F)(F)F (centres undefined)	inconclusive: 14.9%
O=[N+]([O-])c1cccc(-c2ccc(/C=N/NC(=S)NCc3ccco3)o2)c1	inactive: 3.23%
CCN(CC)S(=O)(=O)c1ccc(N2C(=O)CC2(/C=C/c2ccccc2)C(=O)NC2CCCC2)cc1 (centres undefined)	inconclusive: 17.3%
COc1ccc(NC(=O)c2ccc(COCC(F)(F)C(F)F)cc2)cc1OC	inconclusive: 16.1%
Cc1c(/C=N\NC(=O)c2cc3ccccc3o2)c2ccccc2n1C	inconclusive: 18%
CC(CCc1ccccc1)NC(=O)CCNS(=O)(=O)c1ccccc1C(F)(F)F (centres undefined)	inactive: -0.988%
O=C(NCc1cccs1)c1ccc(S(=O)(=O)N2CCCCC2)cc1	inconclusive: 21.7%
CNC(=O)c1[nH]cnc1C(=O)Nc1ccc(F)cc1	inactive: 1.35%
CCN(c1ccc(F)cc1)S(=O)(=O)c1ccc2[nH]cc(C(=O)NCCCN3CCOCC3)c(=O)c2c1	inconclusive: 20.1%
COc1cccc(CN2CC(C(=O)NCCn3ccc(C)n3)CCC2=O)c1 (centres undefined)	inconclusive: 18.1%
NS(=O)(=O)c1ccc(NC(=S)Nc2ccc(C(=O)N3CCCCC3)cc2)cc1	inconclusive: 25.2%

Structure (SMILES)	inhibition
COc1ccc(S(=O)(=O)NCc2cc(=O)n(C)c(=O)n2C)cc1C	inconclusive: 19%
COc1cc(/C=N/NC(=O)c2nc(C)cc(C)n2)ccc1O	inactive: -2.7%
O=C(NC1CC2CCC1C2)C1COc2ccccc2O1 (centres undefined)	inconclusive: 16.8%
O=S(=O)(NC1CCCC1)c1ccc(Br)s1	inconclusive: 10.5%
CC(C)Cn1c(N)c(C(=O)CCl)c(=O)n(C)c1=O	inconclusive: 9.41%
CCCCn1ccnc1C(=O)c1ccc(S(=O)(=O)N(CCOC)CCOC)cc1	inconclusive: 26.6%
CCOC(=O)N1CCC(=C2c3ccc(Cl)cc3CCc3cccnc32)CC1	inconclusive: 14.7%
O=C(CCNC(=O)c1ccc(Br)cc1)OCc1ccccc1Cl	inconclusive: 14.2%
COc1ccccc1OCC(=O)OCC(=O)NCCN1C(=O)CSC1=O	inconclusive: 10.1%
CC[n+]1c(C)sc2sc3ccccc3c21	inconclusive: 25.3%
CN(C)C=NC(=O)c1cc(C(=O)c2ccccc2)c[nH]1	inconclusive: 21.3%
COc1ccc2nc(NCc3cccnc3)sc2c1	inconclusive: 18.7%
COc1ccc(Cn2nnnc2C(c2ccc(F)cc2)N2CCN(C3CCCC3)CC2)cc1 (centres undefined)	inconclusive: 11.9%
Cc1ccc(O)c(-c2cc(C(=O)NCc3ccncc3)[nH]n2)c1	inconclusive: 19.3%
C=CCNC(=O)C(=O)NCC(c1ccc2c(c1)OCO2)N1CCN(c2ccc(F)cc2)CC1 (centres undefined)	inconclusive: 13.1%
COc1ccccc1NS(=O)(=O)c1ccc(NC(=O)Cc2cccs2)cc1	inconclusive: 19.2%
CSc1ncccc1C(=O)Nc1ccccc1N1CCOCC1	inconclusive: 17.3%
O=C(NCCCc1ccccn1)C1CCC(=O)N(Cc2cccc(F)c2)C1 (centres undefined)	inconclusive: 17.7%
COc1ccccc1-c1noc(CSc2nc(C)cc(=O)[nH]2)n1	inconclusive: 15.8%
Cc1nc(NC(=O)CSc2nnc(C)n2CC2CCCO2)sc1C (centres undefined)	inconclusive: 23.8%

As a short view, part of the list above.
Structure (SMILES)	inhibition
CCOc1cc(C(=S)N2CCCC2)ccc1O	inactive: -3.54%
O=C(CSc1nnc(SCc2ccc(Cl)cc2)s1)N1CCN(C(=O)c2ccco2)CC1	inactive: 5.04%
Cc1cc(S(=O)(=O)ON2C(=O)c3ccccc3C2=O)ccc1F	inconclusive: 33.1%
CCCc1ccc2oc(C(=O)N3CCC(C(N)=O)(N4CCCCC4)CC3)c(C)c2c1	inconclusive: 23.8%
CCOc1cc(/C=C(/NC(C)=O)C(=O)O)cc(Cl)c1OCc1cccc(Br)c1	inconclusive: 15.5%
CC(Cl)C(=O)NNc1cccc(Cl)n1 (centres undefined)	inactive: -6.17%
